The record followed here is patent US20080096967A1, “Formulations for Injection of Catecholic Butanes, Including Ndga Compounds, Into Animals” (priority 2005, published 2008).

This continues a long series; more values of the same kind are listed elsewhere.

Common to all, as to type: physicochemical
Data set [1] can be described thus: Solubility of M4N in formulations containing modified celluloses (visual inspection). On the procedure:
A 10 mL solution of 50% HP-β-CD (w/v) and 0.5% hydroxypropyl methylcellulose (“HPMC”) (w/v) for use as a solubilizing agent and/or excipient was made as follows: 5.9 mL of water suitable for injection into animals (“WFI”) were placed in a glass beaker containing a stir bar. The beaker was placed on a magnetic plate, and the stir bar was set to stir at medium speed. Five grams of HP-β-CD were added slowly to the stirring WFI, using a spatula to direct the HP-β-CD to the center of the beaker. The HP-β-CD solution was stirred for about 24 hr or until the HP-β-CD was dissolved completely upon visual inspection. The resulting solution measured about 9.4 mL. About 0.6 mL of WFI was added to this resulting solution to reach 10 mL, to produce a solution of 50% HP-β-CD (w/v). Fifty milligrams of HPMC were added to the 50% HP-β-CD solution and stirred for about 1 hr or until the HPMC was dissolved upon visual inspection. The final solution was stirred for about 1 hr and was then stored at room temperature, protected from light. This method of making modified cyclodextrins with modified celluloses may be scaled up or down to obtain the desired volume or concentration of HP-β-CD/HPMC solution. Other modified cyclodextrin/modified cellulose solutions may be similarly made, for example, by substituting HP-β-CD with other modified cyclodextrins, or HPMC with other modified celluloses, in the process described above.
A 10 mL solution of M4N at a concentration of about 10 mg/mL in 50% HP-β-CD/0.5% HPMC was made as follows. About 10 mL of the 50% HP-β-CD/0.5% HPMC solution were added to a glass beaker containing a stir bar. The beaker was placed on a magnetic plate and the stir bar was set to stir at medium speed. About 100 mg of M4N were slowly added to the 50% HP-β-CD/0.5% HPMC in the center of the beaker with the aid of a spatula. The M4N/50% HP-β-CD/0.5% HPMC mixture was stirred for 24 hr or until all M4N was uniformly suspended without any clumps being present. The M4N/50% HP-β-CD/0.5% HPMC mixture was heated at about 90° C. for about 30 min. (or longer if a larger volume of solution was desired, for example, 1 hr at 90° C. for 500 mL of the M4N/50% HP-β-CD/0.5% HPMC mixture), or longer as needed to ensure complete dissolution of M4N. […] The final M4N/50% HP-β-CD/0.5% HPMC solution was stored at room temperature and was kept protected from light.
A 10 mL solution of 5% ethylcellulose (“EC”) in ethanol (w/v) for use as a solubilizing agent and/or excipient was made as follows: 10 mL of 100% ethyl alcohol (“EtOH”) were placed in a glass beaker containing a stir bar, covered by a round Teflon® cover. The beaker was placed on a magnetic plate, and the stir bar was set to stir at medium speed. Five hundred (500) milligrams of EC was added slowly to the stirring ethanol, using a spatula to direct the EC to the center of the beaker so as to prevent EC powder from sticking to the beaker wall. The EC solution was stirred for about 2 hr or until the EC was dissolved completely upon visual inspection. The final solution was stored at room temperature, and was protected from light.
A 10 mL solution of M4N at a concentration of about 20 mg/mL in 5% EC (w/v) (the “EC formulation”) was made as follows. About 10 mL of 5% EC formulation, made as described above, were added to a glass beaker containing a stir bar. The beaker was placed on a magnetic plate and the stir bar was set to stir at medium speed, and covered with a round Teflon® cover. About 200 mg of M4N were slowly added to the 5% EC formulation in the center of the beaker with the aid of a spatula to prevent M4N from sticking to the beaker wall. The M4N/EC mixture was stirred for 2 hr or until all M4N had dissolved or was uniformly suspended without any clumps being present. The M4N/EC mixture was heated at about 60° C. for about 30 min. […]

Data set [2] in a line: M4N solubility in water miscible organic solvents up to 48 hours (RP-HPLC). On the procedure:
To prepare M4N samples, 200 μL of 100 mg/mL M4N dissolved in acetone were placed in 1.5 mL polypropylene microtubes. The solvent was allowed to evaporate at room temperature for 48 hours until the samples were completely dry.
The water miscible organic solvent formulations were prepared in 15 mL polypropylene centrifuge tubes. 10 mL of each formulation was prepared. Each solvent was added on the basis of weight using its respective density at 25° C. Following brief mixing, each formulation was filtered through a 0.45 μm surfactant free cellulose acetate (“SFCA”) filter into a fresh 15 mL tube. Formulations were kept at room temperature until ready for use.
At each time point, the samples were centrifuged for 2 minutes at 13,000 rpm to pellet any solid M4N. As noted in Table 25, over half of the formulation conditions examined were able to solubilize M4N to a concentration of greater than 10 mg/Ml.

Data set [3] can be described thus: M4N stability in 11-14 mg/mL PEG300/HP-β-CD solutions at room temperature (RP-HPLC). The conditions noted are these: 24 hour incubation at room temperature, regardless of target M4N or formulation. The method, then:
To support manufacturing specifications, this study examined the 24-hour room temperature stability of combinations of PEG300/HP-β-CD at varying M4N target concentrations. Stock samples of M4N stocks were prepared in 100% PEG 300 at drug concentrations of 33-56 mg/mL at 60° C. as follows.
M4N bulk drug was solubilized to concentrations of 33, 44, 48, 52, 55 and 56 mg/mL (w/w) in PEG 300 using the procedure set forth in Examples 13 and 16, following incubation of at least 2 hours at 60° C. Vigorous vortexing and mixing were necessary for complete solubilization of M4N above 44 mg/mL. The M4N stock solutions were filtered through a 0.45 μm SFCA filter and used within 30 minutes of preparation. Separately, a solution of 40% (w/v) HP-β-CD was prepared in sterile WFI and filtered. Combinations of the 40% HP-β-CD stock and the M4N/PEG 300 stocks were combined in 1.5 mL polypropylene microtubes.
The requisite amount of M4N stock was added to 40% HP-β-CD to yield the final concentrations of drug and excipients listed in Table 28. Samples were gently rotated (˜12 rpm) at room temperature. At 2 and 24 hours of incubation, samples were centrifuged 2 minutes at 13,000 rpm and 50 μL aliquots were removed for RP-HPLC analysis.

With `COc1ccc(C[C@@H](C)[C@@H](C)Cc2ccc(OC)c(OC)c2)cc1OC` [Formulation M4N, meso-1,4-bis(3,4-dimethoxyphenyl)-2,3-dimethylbutane], the “Dissolution After Cool-Down” value in data set [1] (50% HP-β-CD, 0.5% HPMC, M4N 1 mg/mL) is recorded as “Y”; in data set [1] (50% HP-β-CD, 0.5% HPMC, M4N 10 mg/mL) it was “Y”; in data set [1] (EC 5% (w/v) in EtOH, M4N 10 mg/mL), “Y”; in data set [1] (EC 5% (w/v) in EtOH, M4N 20 mg/mL), “Y”; in data set [1] (EC 5% (w/v) in EtOH, M4N 30 mg/mL), “N”; in data set [1] (EC 5% (w/v) in EtOH, M4N 50 mg/mL) it was “N”. Moreover, in data set [1] (EC 5% (w/v) in EtOH, M4N 100 mg/mL), the “Dissolution After Cool-Down” value is recorded as “N”. Further, the M4N solubility in data set [2] (100% PEG300, 2 hrs at room temperature) came out at 5810 µg/mL; in data set [2] (100% PEG300, 24 hrs at room temperature), 10370 µg/mL; in data set [2] (100% PEG300, 48 hrs at room temperature), 11520 µg/mL; in data set [2] (100% PG, 2 hrs at room temperature), 1100 µg/mL; in data set [2] (100% PG, 24 hrs at room temperature), 1330 µg/mL; in data set [2] (100% PG, 48 hrs at room temperature), 1760 µg/mL. Moreover, the changes in solubility result in data set [3] was “little if any changes”.
